Assay results: PubChem BioAssay AID743255 (National Center for Advancing Translational Sciences (NCATS), 2014)
The whole screen tested about 390,000 compounds, of which about 910 (0.23%) were called active. Inconclusive results, whose numbers are uncertain, are shown with a selection of clear calls. Calls follow the shape of the dose curve; as a rule, active = well fitted inhibition curve with a large enough effect; inconclusive = small, poorly fitted or top-dose-only effect; inactive = no such curve, though single readings can be large or run the other way. Potencies of inconclusive entries are doubtful fits and often do not repeat.

Chains of the proteins cited; added tags and fusions are not shown. Lines headed by an entry give the natural chain unless they say otherwise; changes in a name come on top.
UniProt O94782: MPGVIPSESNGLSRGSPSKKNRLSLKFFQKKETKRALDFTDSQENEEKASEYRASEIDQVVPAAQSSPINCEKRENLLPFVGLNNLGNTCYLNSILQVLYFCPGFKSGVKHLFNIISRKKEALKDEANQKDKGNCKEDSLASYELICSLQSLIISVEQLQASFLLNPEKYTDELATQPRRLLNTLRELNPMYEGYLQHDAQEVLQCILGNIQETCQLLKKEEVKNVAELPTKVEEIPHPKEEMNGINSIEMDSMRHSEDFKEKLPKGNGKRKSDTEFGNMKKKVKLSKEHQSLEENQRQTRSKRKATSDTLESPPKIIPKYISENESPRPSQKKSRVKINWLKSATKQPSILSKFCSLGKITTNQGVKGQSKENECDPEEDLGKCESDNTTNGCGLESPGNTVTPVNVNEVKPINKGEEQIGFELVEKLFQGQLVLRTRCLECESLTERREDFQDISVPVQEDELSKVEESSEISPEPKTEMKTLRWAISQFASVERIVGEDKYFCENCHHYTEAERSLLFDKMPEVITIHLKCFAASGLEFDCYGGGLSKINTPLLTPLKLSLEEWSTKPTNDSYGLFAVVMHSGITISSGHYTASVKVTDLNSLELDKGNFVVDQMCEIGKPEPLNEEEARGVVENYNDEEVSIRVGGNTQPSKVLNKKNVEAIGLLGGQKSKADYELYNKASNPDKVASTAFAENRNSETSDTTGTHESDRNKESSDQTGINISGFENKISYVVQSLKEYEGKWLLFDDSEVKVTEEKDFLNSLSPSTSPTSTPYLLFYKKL

Target: Ubiquitin carboxyl-terminal hydrolase 1 (Homo sapiens) (UniProt O94782)
Test: Inhibitors of USP1/UAF1: Primary Screen; also: nearly all actives have a fitted effect of over 60% in size
Details: recombinant USP1/UAF1, Ub-Rhodamine cleavage fluorescence; activity change, negative = inhibition: at 57.1 µM (top of the series)
Summary of the method: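 1 nM enzyme complex + cpd, 15 min RT; start with Ub-Rho 150nM final; kinetic fluorescence ex 480/em 540, 6 reads q60 s. Buffer 50mM HEPES pH 7.8, 0.5mM EDTA, 0.1 mg/ml BSA, 1mM TCEP, 0.01% Tween-20.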
% is scaled to controls: 0 for no effect and ±100 for the full control effect; potency is read from the fitted curve at half-maximal effect.

Structure (SMILES) | activity change, negative = inhibition | Potency
C=C1C[C@@]23CCC4[C@@](C)(CCC[C@@]4(C)C(=O)O)C2CC[C@]1(O)C3 (stereo partly drawn) | inactive: -17.5% | –
COc1cccc(CN(C)S(=O)(=O)c2ccccc2Br)c1 | – | inconclusive: 141 µM [inhibitor, partial curve, poor fit]
Cc1cccc(C)c1N1C(=O)c2ccccc2C1=O | – | inconclusive: 28.2 µM [inhibitor, single point]
COc1ccc2cc3cc(C(=O)NCc4ccc(C)cc4)oc3nc2c1 | inactive: -15.4% | –
c1ccc(CN2CCC(N3CCN(Cc4ccc5c(c4)OCO5)CC3)CC2)cc1 | – | inconclusive: 0.282 µM [inhibitor, full curve, poor fit]
COc1cc(NC(=O)NCc2ccco2)ccc1-c1ccc(NC(=O)NCc2ccco2)cc1OC | – | inconclusive: 7.94 µM [inhibitor, single point]
COc1cccc(C2CC(c3cccc(OC)c3)n3nc(N)nc3N2)c1 (stereo not drawn) | – | inconclusive: 7.08 µM [inhibitor, single point]
Cc1cccc(OCC(=O)N2CCC(c3ccccc3)C2)c1 (stereo not drawn) | – | inconclusive: 12.6 µM [inhibitor, partial curve]
COc1ccc(N(S(=O)(=O)c2ccccc2)S(=O)(=O)c2ccccc2)c(N)c1 | – | inconclusive: 50.1 µM [inhibitor, partial curve, poor fit]
CC1CC(C)CN(C(=O)c2cccc(S(=O)(=O)Nc3cc(C(F)(F)F)ccc3Cl)c2)C1 (stereo not drawn) | – | inconclusive: 10 µM [inhibitor, partial curve]
CCOc1ccc(CNC(=O)CS(=O)(=O)Cc2nc(-c3ccc(OC)cc3)oc2C)cc1 | – | inconclusive: 5.01 µM [inhibitor, partial curve, poor fit]
COc1ccc(-c2ocnc2C(=O)N2CCN(C(c3ccccc3)c3ccccc3)CC2)cc1 | inactive: -16.9% | –
CCN(CC)c1nc(SCCOC(=O)Nc2ccccc2)nc(N(CC)CC)n1 | – | inconclusive: 31.6 µM [inhibitor, partial curve, poor fit]
COc1ccc(N2C(=O)C(Cl)=C(Nc3ccccc3OC)C2=O)cc1 | inactive: -20% | –
CCN1CCN(c2ccc(N=Cc3ccccc3O)cc2)CC1 | – | inconclusive: 44.7 µM [inhibitor, partial curve, poor fit]
NS(=O)(=O)c1ccc(CCNC(=O)C(=O)NCC2OCCN2S(=O)(=O)c2ccc(F)cc2)cc1 (stereo not drawn) | – | inconclusive: 44.7 µM [inhibitor, partial curve, poor fit]
COCCCNC(=O)CSC1=Nc2ccccc2C2=NC(CCC(=O)NCc3ccccc3OC)C(=O)N12 (stereo not drawn) | – | inconclusive: 0.0891 µM [inhibitor, full curve, poor fit]
CCOC(=O)c1ccccc1NC(=O)C1CC(=O)N(C2CCCCC2)C1 (stereo not drawn) | inactive: -23.5% | –
Fc1cccc(NC(=S)NNc2c3ccccc3nc3ccccc23)c1 | – | inconclusive: 31.6 µM [inhibitor, partial curve, poor fit]

An excerpt of these results, as tab-separated lines.
Structure (SMILES)	activity change, negative = inhibition	Potency
c1ccc(CN2CCC(N3CCN(Cc4ccc5c(c4)OCO5)CC3)CC2)cc1	–	inconclusive: 0.282 µM [inhibitor, full curve, poor fit]
CC1CC(C)CN(C(=O)c2cccc(S(=O)(=O)Nc3cc(C(F)(F)F)ccc3Cl)c2)C1 (stereo not drawn)	–	inconclusive: 10 µM [inhibitor, partial curve]
COc1ccc(-c2ocnc2C(=O)N2CCN(C(c3ccccc3)c3ccccc3)CC2)cc1	inactive: -16.9%	–

(cont.)

Structure (SMILES) | activity change, negative = inhibition | Potency
CC(C)n1c(O)c(/C=C2\C=NN=C2c2ccccc2)sc1=S | inactive: 4.9% | –
Cc1ccc(C)c(Cn2c3ccccc3c3cnn(CC(=O)NCCCc4ccccc4)c(=O)c32)c1 | – | inconclusive: 0.708 µM [inhibitor, full curve, poor fit]
Cc1ccccc1CS(=O)(=O)CC1Nc2ccc(C(=O)NCc3ccc(Cl)cc3)cc2NC1=O (stereo not drawn) | – | inconclusive: 14.1 µM [inhibitor, partial curve, poor fit]
CCOc1cccc(CNC(=O)c2ccc(N3CCCC3)c(NC(=O)NCc3ccc(F)cc3)c2)c1 | – | inconclusive: 7.94 µM [inhibitor, full curve, poor fit]
O=C(NCc1ccco1)C1CCN(C(=O)N2CCOc3ccccc32)CC1 | – | inconclusive: 39.8 µM [inhibitor, partial curve, poor fit]
CC(C)Cn1c(NCCN(C)C)nc2c1c(=O)[nH]c(=O)n2C | inactive: -11.7% | –
CCN1C(N(C)CCc2c[nH]c3ccccc23)=N[C@@H](c2cccc(C(F)(F)F)c2)C(C(=O)OC)=C1C | – | inconclusive: 12.6 µM [inhibitor, partial curve, poor fit]
Cc1ccccc1NC(=O)c1cccc(NC(=O)c2ccccc2C(=O)O)c1 | – | inconclusive: 44.7 µM [inhibitor, single point]
O=C(Nc1cccc(C(=O)OCc2cc(=O)n3nc(C4CC4)sc3n2)c1)c1ccccc1 | – | inconclusive: 4.47 µM [inhibitor, partial curve]
Cc1[nH]n(-c2ccccc2)c(=O)c1C(C[N+](=O)[O-])c1ccc(F)cc1 (stereo not drawn) | – | inconclusive: 5.62 µM [inhibitor, full curve, poor fit]
Cc1ccc(C)c(N2CCN(S(=O)(=O)c3cc(Br)cc4c3N(C(=O)C3CC3)CC4)CC2)c1 | – | inconclusive: 562 µM [inhibitor, partial curve]
O=C(Nc1cccc(-c2cnc3ccccc3n2)c1)c1cccc(NC(=O)c2ccco2)c1 | – | inconclusive: 22.4 µM [inhibitor, partial curve]
CCNC(=O)OCc1cn(-c2ccc(Cl)cc2)nn1 | – | inconclusive: 44.7 µM [inhibitor, partial curve, poor fit]
Cc1cccc(C)c1NC(=O)C(NS(=O)(=O)c1ccc2c(c1)CCC(=O)N2)c1ccccc1 (stereo not drawn) | – | inconclusive: 44.7 µM [inhibitor, partial curve, poor fit]
COc1ccc([C@H]2CC(=O)C=C(c3cccc(Br)c3)C2)cc1 | inactive: -5.62% | –
CCOC(=O)c1c(NC(=O)c2ccc(S(=O)(=O)N3CCC(C)CC3)cc2)sc2c1CCN(C)C2 | – | inconclusive: 44.7 µM [inhibitor, partial curve, poor fit]
C[C@H]1[C@H](C)CC[C@]2(C)CC[C@]3(C)C(=CC(=O)C4[C@@]5(C)CC[C@H](O)C(C)(C)C5CC[C@]43C)[C@H]12 (stereo partly drawn) | – | inconclusive: 0.316 µM [inhibitor, full curve]
Cc1ccc2[nH]c(CSc3nnc(NC(=O)COc4ccccc4)s3)cc(=O)c2c1 | inactive: -9.03% | –
CC(C)OC(=O)c1cc(-c2ccc(C=O)o2)ccc1Cl | – | inconclusive: 39.8 µM [inhibitor, partial curve]
